Structures are written as SMILES. The list is a part of this screen's results and no random one: it gathers tests that were run many times, whatever their T/C, doses with no T/C, and many T/C values between a quarter and a half above the control. Other doses and runs of a compound stand elsewhere. T/C is the treated group as % of the vehicle group. Some doses have a count of surviving animals in place of a T/C: the source holds a T/C of zero for them, seemingly a mark for toxic or unscored doses. Some survivor counts are full or nearly so, which does not show that the dose was tolerated: the source hardly ever lists a survival T/C far under the control, and the zero likely stands for such cases as well. Survivors were counted at the toxicity check, usually on the fifth day, unless a day is given; later deaths do not show. Schedules are NCI's codes, read here as Q, the interval in days (D) or hours (H), X, the number of doses. Some schedule codes hold Z or #, which are not explained here. Where survival is the endpoint, this PubChem deposit counts one and a half times the control or more as active, and values a quarter to a half above the control carry no call in these data; other NCI protocols may use other cut-offs.

The experiment concerns L1210 leukemia ip in BDF1 mice, survival T/C. The experiment in a line: NCI In Vivo Anticancer Drug Screen. Data for tumor model L1210 Leukemia (intraperitoneal) in B6D2F1 (BDF1) mice. The following applies: T/C endpoint: mean survival time, higher T/C = longer survival.
[1] abbreviates: dose: 200.0 mg/kg/injection, schedule: Q01DX001 (ip), vehicle: saline.
[2] abbreviates: dose: 400.0 mg/kg/injection, schedule: Q01DX001 (ip), vehicle: saline.
[3] abbreviates: dose: 100.0 mg/kg/injection, schedule: Q01DX009 (ip), vehicle: Klucel (hydroxypropylcellulose) (HPC).
The mark [4] stands for this setting: dose: 200.0 mg/kg/injection, schedule: Q01DX009 (ip), vehicle: saline with Tween-80.
[5] abbreviates: dose: 400.0 mg/kg/injection, schedule: Q01DX009 (ip), vehicle: saline.
The mark [6] stands for this setting: dose: 200.0 mg/kg/injection, schedule: Q01DX001 (ip), vehicle: Klucel (hydroxypropylcellulose) (HPC).
Where [7] appears, read: dose: 400.0 mg/kg/injection, schedule: Q01DX009 (ip), vehicle: saline with Tween-80.

For the compound `NC1C(=O)NC(=O)NC1=S` (stereo unspecified), the survivor count (dose: 67.0 mg/kg/injection, schedule: Q01DX Z (ip), vehicle: methylcellulose (MC)) is listed as 1 of 6 and the survivor count (dose: 100.0 mg/kg/injection, schedule: Q01DX Z (ip), vehicle: methylcellulose (MC)) is given as 1 of 6.

With `CC[N+](C)(CC)CCNC(c1ccccc1)C(Cl)(Cl)Cl` (stereo unspecified), the survivor count under setting [1] is recorded as 0 of 4 and the survivor count under setting [2] is 0 of 4.

As for `CC(C)C(CCN1CCCCC1)(CNC1=NCCN1)c1cccc2ccccc12` (stereo unspecified), the survivor count is on record as 0 of 6 under setting [3]; 0 of 6 (dose: 200.0 mg/kg/injection, schedule: Q01DX009 (ip), vehicle: Klucel (hydroxypropylcellulose) (HPC)); 0 of 6 (dose: 400.0 mg/kg/injection, schedule: Q01DX009 (ip), vehicle: Klucel (hydroxypropylcellulose) (HPC)).

Take `CC(C)(C)c1ccc(SSc2ccc(C(C)(C)C)cc2)cc1`: the survivor count under setting [3] is recorded as 0 of 6.

As to `CCCCCCCCCCCCCCCCS(=O)(=O)c1ccc(S(=O)(=O)N/N=c2/sc3ccc(S(=O)(=O)O)cc3n2C)cc1C(=O)O`, under setting [4], the survivor count is reported as 0 of 3.

In the case of `S=C=NCCCCCCN=C=S`, the survivor count is 0 of 3 (dose: 100.0 mg/kg/injection, schedule: Q04DX002 (ip), vehicle: saline); 2 of 3 (dose: 200.0 mg/kg/injection, schedule: Q04DX002 (ip), vehicle: saline); 0 of 3 (dose: 400.0 mg/kg/injection, schedule: Q04DX002 (ip), vehicle: saline).

As for `Cc1ccc2c(ccc3c[n+]4c5ccccc5ccc4n32)c1`, the survivor count was 0 of 6 (dose: 80.0 mg/kg/injection, schedule: Q01DX001 (ip), vehicle: saline); 0 of 6 (dose: 100.0 mg/kg/injection, schedule: Q01DX001 (ip), vehicle: saline); 0 of 6 under setting [1]; 0 of 6 under setting [2].

For `C=CCCN1CCCC1`, the survivor count runs as follows: (dose: 6.0 mg/kg/injection, schedule: Q01DX009 (ip), vehicle: saline with Tween-80) 6 of 6; (dose: 50.0 mg/kg/injection, schedule: Q04DX003 (ip), vehicle: saline with Tween-80) 3 of 6; (dose: 100.0 mg/kg/injection, schedule: Q04DX003 (ip), vehicle: saline with Tween-80) 0 of 6; (dose: 200.0 mg/kg/injection, schedule: Q04DX003 (ip), vehicle: saline with Tween-80) 0 of 6. Further, the T/C (dose: 12.5 mg/kg/injection, schedule: Q04DX003 (ip), vehicle: saline with Tween-80) is 130 % of control.

For `Cc1ccc(S(=O)(=O)N/N=C2/C3CC4C(C3)C24)cc1`, the survivor count is listed as 6 of 6 (dose: 100.0 mg/kg/injection, schedule: Q01DX009 (ip), vehicle: saline) and 6 of 6 (dose: 375.0 mg/kg/injection, schedule: Q01DX009 (ip), vehicle: saline).

With `COC1C=CC=CC=C1`, the survivor count (dose: 75.0 mg/kg/injection, schedule: Q01DX001 (ip), vehicle: saline) is listed as 0 of 6; the survivor count (dose: 150.0 mg/kg/injection, schedule: Q01DX001 (ip), vehicle: saline) is given as 0 of 6; the survivor count (dose: 300.0 mg/kg/injection, schedule: Q01DX001 (ip), vehicle: saline) is 0 of 6.

On to `N#Cc1ccc[n+](CCCl)c1`, for which the survivor count by setting is: (dose: 10.0 mg/kg/injection, schedule: Q01DX Z (ip), vehicle: saline) 0 of 6; (dose: 100.0 mg/kg/injection, schedule: Q01DX Z (ip), vehicle: saline) 6 of 6; (dose: 300.0 mg/kg/injection, schedule: Q01DX Z (ip), vehicle: saline) 0 of 6.

With `C/C=C/C(=O)Nc1cccc(Cl)c1`, the survivor count (dose: 400.0 mg/kg/injection, schedule: Q01DX009 (ip), vehicle: other) is 0 of 6.

In the case of `C/C(=N\[N+](C)(C)C)c1cccc(C)n1`, the survivor count runs as follows: under setting [1], 1 of 6; under setting [2], 0 of 6.

Consider `CN(C)C(=O)Sc1cccnc1`, for which the survivor count under setting [5] is 3 of 6.

Consider `CCCCOC(=O)/C=C/C(=O)[O][Sn]([CH2]CCC)([CH2]CCC)[O]C(=O)/C=C/C(=O)OCCCC`, for which the survivor count reads like this: (dose: 100.0 mg/kg/injection, schedule: Q01DX009 (sc), vehicle: olive oil, sesame oil, peanut oil) 2 of 3; (dose: 200.0 mg/kg/injection, schedule: Q01DX009 (sc), vehicle: olive oil, sesame oil, peanut oil) 0 of 3; (dose: 400.0 mg/kg/injection, schedule: Q01DX009 (sc), vehicle: olive oil, sesame oil, peanut oil) 0 of 3; (dose: 400.0 mg/kg/injection, schedule: Q04DX002 (sc), vehicle: olive oil, sesame oil, peanut oil) 3 of 3.

As to `CCN(CC)c1ccc(-c2cc(NS(=O)(=O)c3ccccc3)ccc2NS(=O)(=O)c2ccccc2)cc1`, the survivor count is listed as 6 of 6 (dose: 50.0 mg/kg/injection, schedule: Q01DX001 (ip), vehicle: Klucel (hydroxypropylcellulose) (HPC)) and 6 of 6 under setting [6].

For `COC1=C(OC)C(=O)C(Sc2ccc3ccccc3c2)=CC1=O`, under setting [4], the survivor count is recorded as 1 of 6.

In the case of `COC(=O)C(NC(=O)C(NC(=O)Cc1ccccc1)SCc1ccccc1)=C(C)C` (stereo unspecified), under “dose: 400.0 mg/kg/injection, schedule: Q04DX003 (ip), vehicle: saline”, the survivor count was 6 of 6.

Regarding `CNNC(=O)c1ccccc1`, the T/C (dose: 25.0 mg/kg/injection, schedule: Q04DX002 (ip), vehicle: saline) was 125 % of control.

On to `CNC(=O)Oc1ccccc1C(C)C`, for which the survivor count is listed as 0 of 3 (dose: 100.0 mg/kg/injection, schedule: Q04DX002 (ip), vehicle: Klucel (hydroxypropylcellulose) (HPC)) and 0 of 3 (dose: 200.0 mg/kg/injection, schedule: Q04DX002 (ip), vehicle: Klucel (hydroxypropylcellulose) (HPC)).

With `COC(OC)c1[nH]c(=S)[nH]c(=O)c1Cc1ccccc1`, the survivor count by setting is: (dose: 100.0 mg/kg/injection, schedule: Q01DX009 (ip), vehicle: saline with Tween-80) 6 of 6; under setting [7], 6 of 6.

Consider `CCOc1cc(C)c2cccc(C)c2n1`, for which the survivor count (dose: 400.0 mg/kg/injection, schedule: Q01DX001 (ip), vehicle: other) was 4 of 4.

For `O=C(Nc1ccc(CC2=NCCCN2)cc1)c1ccc(C(=O)Nc2ccc(CC3=NCCCN3)cc2)cc1`, the survivor count (dose: 2.0 mg/kg/injection, schedule: Q01DX Z (ip), vehicle: water) is on record as 3 of 6.

Take `CCc1ccc(/C=C/c2ccc[nH]2)[n+](C)c1`: the survivor count reads like this: (dose: 100.0 mg/kg/injection, schedule: Q01DX001 (ip), vehicle: carboxymethylcellulose (CMC)) 1 of 6; (dose: 200.0 mg/kg/injection, schedule: Q01DX001 (ip), vehicle: carboxymethylcellulose (CMC)) 0 of 6; (dose: 400.0 mg/kg/injection, schedule: Q01DX001 (ip), vehicle: carboxymethylcellulose (CMC)) 0 of 6.

Turning to `NNC(=O)CNc1ccc(F)cc1Br`, the survivor count (dose: 400.0 mg/kg/injection, schedule: Q04DX002 (ip), vehicle: Klucel (hydroxypropylcellulose) (HPC)) is 1 of 3.

As to `O=Nc1ccc(O)cc1Br`, the survivor count was 3 of 3 (dose: 100.0 mg/kg/injection, schedule: Q01DX001 (ip), vehicle: Klucel (hydroxypropylcellulose) (HPC)) and 3 of 3 under setting [6].

For `CC(=O)Nc1c(CCCCc2ccccc2)[nH]c(=O)[nH]c1=O`, the survivor count by setting is: under setting [6], 3 of 3; (dose: 400.0 mg/kg/injection, schedule: Q01DX001 (ip), vehicle: Klucel (hydroxypropylcellulose) (HPC)) 1 of 3.

For `Nc1ccc2ncccc2c1`, the survivor count under setting [5] is 0 of 6.

Turning to `Cc1cc2ncn(CC(=O)NN)c2cc1C`, the survivor count by setting is: under setting [4], 6 of 6; under setting [7], 6 of 6.

For `CN(C)CCC(O)Cc1ccccc1` (stereo unspecified), the survivor count (dose: 400.0 mg/kg/injection, schedule: Q01DX009 (ip), vehicle: acetone) is reported as 0 of 6.

`CC(C)NC(=O)c1ccc(/C=N/N(C)C)cc1`: the survivor count (dose: 400.0 mg/kg/injection, schedule: Q04DX003 (ip), vehicle: Klucel (hydroxypropylcellulose) (HPC)) is 3 of 6.
